Assay [1] addresses T1, Scd2 (two-hybrid bait, scd2+ ORF in pAS2) (S. pombe) (UniProt P40996).
T1 sequence: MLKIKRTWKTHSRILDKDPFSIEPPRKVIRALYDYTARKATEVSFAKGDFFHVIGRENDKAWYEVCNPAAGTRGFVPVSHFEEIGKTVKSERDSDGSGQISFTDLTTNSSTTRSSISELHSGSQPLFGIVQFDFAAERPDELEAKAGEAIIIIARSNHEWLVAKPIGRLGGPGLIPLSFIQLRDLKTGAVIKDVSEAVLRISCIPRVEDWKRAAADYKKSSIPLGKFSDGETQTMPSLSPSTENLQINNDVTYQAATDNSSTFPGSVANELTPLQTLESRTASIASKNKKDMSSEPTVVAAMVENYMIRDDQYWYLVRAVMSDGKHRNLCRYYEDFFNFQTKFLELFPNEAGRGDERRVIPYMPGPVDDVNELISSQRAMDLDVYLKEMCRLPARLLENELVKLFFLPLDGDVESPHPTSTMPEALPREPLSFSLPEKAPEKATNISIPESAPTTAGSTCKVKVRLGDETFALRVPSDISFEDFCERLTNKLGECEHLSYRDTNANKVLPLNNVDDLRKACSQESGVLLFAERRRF
Nature of the assay: two-hybrid; baits in pAS2, Eng2 prey in pACT2, S. cerevisiae AH109; interaction assessed by growth on YNB plates without histidine and adenine.

Assay [2] concerns the target T2, Pob1 (two-hybrid bait, pob1+ ORF in pAS2) (S. pombe) (UniProt O74653).
T2 sequence: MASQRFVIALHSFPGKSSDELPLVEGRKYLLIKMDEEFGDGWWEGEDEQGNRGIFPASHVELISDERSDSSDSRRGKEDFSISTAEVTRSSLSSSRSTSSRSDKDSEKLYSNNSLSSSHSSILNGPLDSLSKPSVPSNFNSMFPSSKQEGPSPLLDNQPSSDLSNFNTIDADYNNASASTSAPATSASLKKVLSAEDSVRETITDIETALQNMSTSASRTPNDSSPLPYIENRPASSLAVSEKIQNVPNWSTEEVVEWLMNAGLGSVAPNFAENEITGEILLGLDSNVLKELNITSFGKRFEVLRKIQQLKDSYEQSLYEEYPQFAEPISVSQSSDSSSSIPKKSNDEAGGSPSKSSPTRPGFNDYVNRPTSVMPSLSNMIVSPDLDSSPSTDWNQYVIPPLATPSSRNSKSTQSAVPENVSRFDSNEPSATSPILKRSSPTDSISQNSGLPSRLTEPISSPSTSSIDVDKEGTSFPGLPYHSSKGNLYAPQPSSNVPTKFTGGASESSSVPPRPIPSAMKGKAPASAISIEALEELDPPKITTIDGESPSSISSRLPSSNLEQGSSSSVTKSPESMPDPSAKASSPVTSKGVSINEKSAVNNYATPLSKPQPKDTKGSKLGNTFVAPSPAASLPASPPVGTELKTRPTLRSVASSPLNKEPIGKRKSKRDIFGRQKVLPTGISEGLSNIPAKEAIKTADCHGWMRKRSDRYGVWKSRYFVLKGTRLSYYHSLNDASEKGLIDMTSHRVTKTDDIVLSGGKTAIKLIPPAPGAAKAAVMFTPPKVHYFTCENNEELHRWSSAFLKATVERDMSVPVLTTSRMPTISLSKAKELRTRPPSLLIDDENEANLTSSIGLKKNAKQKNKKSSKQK
Described as above.

Another assay addresses T3, Scd2-GFP (S. pombe) (UniProt P40996).
T3 sequence: T1 sequence
Nature of the assay: co-IP; S. pombe cells crosslinked with 1% formaldehyde for 10 min at 30 °C; extracts in 25 mM Tris HCl pH 7.5, 150 mM NaCl, 0.5% SDS, 1% NP40; GFP-Trap beads 1 h at 4 °C; blots with anti-GFP and anti-HA.

These are yes or no findings as the source states them, for the method shown. For part of these data: Binding seen in cells or lysates may run through a third protein. Some binding calls cover weakened binding; strength is not graded here. For part of these data: Sequences can lack the tags named with a protein.

B1: Eng2 (two-hybrid prey, eng2+ ORF in pACT2) (protein, UniProt Q09850 1-706)
chain: MDVLVPIYTGPINPVFPSRAHPSPPLGLTSNLFPIQTNKFYGNLYIGTRHNPSWSHPYSVTWLNGSSYYGLAISHIDDSQRVFGPDPESVPCQYYFNPAGLYSIIISAREFASGNLLSLDQSRHFSIQATLSATTSGSGTIILPIVAGMGFVSGYYTNLTPVFNSSILFSSITKINFSRGYKYRIQLTDGKIWFLYAFPTSSSSTFNLTLASNSQLTTSTKFTGLIQICKVPNESVNNSYPDTIYDASAGVYTTSISLSAQVSGTTGEYWFRFATAGYTNLNPLMFALPHHMQSFGSDTQAYKTGLGLASTTMGIMFAYATKTWHLIEKNLPTQVGFLPIPWNGGSNTYSPTALAAIRAACATDINFDVVNASNLDSMYTSGKIVAMYAQVCLVASRILGDSTLTNTGLTKLKQAMARFTTNTQMYPLVYDTTYKGIISTAGYSSPLADYGNTYYNDHHFHWGYHIYACAVIGLLDPSWLVNDNIRYVNALLRDSANPSESDTYFAMFRNFDWFVGHSWATGIFESGDGKDEESTSEDFNFLYATKLWGMVRNDTVLINRANLMLAVLKNSLNTYIYMTPTTSVQPSQILGNYVTGITFMNKVDYATYFSAEEYCKQGIHMIPTTPISGYLRSPSYVQQDWNAKIAPIINTFSNNWTGILWSNYAIYDPKTAYNTFAASTFTADKIDNGASKTWYLAMAAGMGGSP
With B1, the values for the binding entry in assay [1] and in assay [2] were “binds” and “no binding”, respectively.

B2: Eng2-HA (protein, UniProt Q09850 1-706)
chain: B1 chain
For B2, in the assay with Scd2-GFP (S. pombe), the binding entry is “binds”.

For the origin of these results see paper PMC8429772.
